{"source": "paper PMC8509428", "about": "“The Phenoxyalkyltriazine Antagonists for 5-HT6 Receptor with Promising Procognitive and Pharmacokinetic Properties In Vivo in Search for a Novel Therapeutic Approach to Dementia Diseases” (International Journal of Molecular Sciences, 2021)", "origin": "cited, not measured here", "biological_target": "human 5-HT6R", "details": "± SD; read-out: Ki 5-HT6; cited from earlier work"}
{"molecule": "Cc1cc2c(s1)Nc1ccccc1N=C2N1CCN(C)CC1", "note": "[Ref, olanzapine, reference compound]", "values": [{"measurement": "Ki", "value": "7 ± 1", "unit": "nM"}]}
